Test results reported in patent US10618901B2 (GlaxoSmithKline Intellectual Property Development Limited, priority 2014, dated 2020).
Where two headings read alike, the source gives them in different places. Some of these results come from one statement about several compounds together.

Sequences of proteins named here, by UniProt entry; tags and fusion partners are left off. A change or cut given only in a name is not applied to a line headed by its entry.
UniProt Q5S007: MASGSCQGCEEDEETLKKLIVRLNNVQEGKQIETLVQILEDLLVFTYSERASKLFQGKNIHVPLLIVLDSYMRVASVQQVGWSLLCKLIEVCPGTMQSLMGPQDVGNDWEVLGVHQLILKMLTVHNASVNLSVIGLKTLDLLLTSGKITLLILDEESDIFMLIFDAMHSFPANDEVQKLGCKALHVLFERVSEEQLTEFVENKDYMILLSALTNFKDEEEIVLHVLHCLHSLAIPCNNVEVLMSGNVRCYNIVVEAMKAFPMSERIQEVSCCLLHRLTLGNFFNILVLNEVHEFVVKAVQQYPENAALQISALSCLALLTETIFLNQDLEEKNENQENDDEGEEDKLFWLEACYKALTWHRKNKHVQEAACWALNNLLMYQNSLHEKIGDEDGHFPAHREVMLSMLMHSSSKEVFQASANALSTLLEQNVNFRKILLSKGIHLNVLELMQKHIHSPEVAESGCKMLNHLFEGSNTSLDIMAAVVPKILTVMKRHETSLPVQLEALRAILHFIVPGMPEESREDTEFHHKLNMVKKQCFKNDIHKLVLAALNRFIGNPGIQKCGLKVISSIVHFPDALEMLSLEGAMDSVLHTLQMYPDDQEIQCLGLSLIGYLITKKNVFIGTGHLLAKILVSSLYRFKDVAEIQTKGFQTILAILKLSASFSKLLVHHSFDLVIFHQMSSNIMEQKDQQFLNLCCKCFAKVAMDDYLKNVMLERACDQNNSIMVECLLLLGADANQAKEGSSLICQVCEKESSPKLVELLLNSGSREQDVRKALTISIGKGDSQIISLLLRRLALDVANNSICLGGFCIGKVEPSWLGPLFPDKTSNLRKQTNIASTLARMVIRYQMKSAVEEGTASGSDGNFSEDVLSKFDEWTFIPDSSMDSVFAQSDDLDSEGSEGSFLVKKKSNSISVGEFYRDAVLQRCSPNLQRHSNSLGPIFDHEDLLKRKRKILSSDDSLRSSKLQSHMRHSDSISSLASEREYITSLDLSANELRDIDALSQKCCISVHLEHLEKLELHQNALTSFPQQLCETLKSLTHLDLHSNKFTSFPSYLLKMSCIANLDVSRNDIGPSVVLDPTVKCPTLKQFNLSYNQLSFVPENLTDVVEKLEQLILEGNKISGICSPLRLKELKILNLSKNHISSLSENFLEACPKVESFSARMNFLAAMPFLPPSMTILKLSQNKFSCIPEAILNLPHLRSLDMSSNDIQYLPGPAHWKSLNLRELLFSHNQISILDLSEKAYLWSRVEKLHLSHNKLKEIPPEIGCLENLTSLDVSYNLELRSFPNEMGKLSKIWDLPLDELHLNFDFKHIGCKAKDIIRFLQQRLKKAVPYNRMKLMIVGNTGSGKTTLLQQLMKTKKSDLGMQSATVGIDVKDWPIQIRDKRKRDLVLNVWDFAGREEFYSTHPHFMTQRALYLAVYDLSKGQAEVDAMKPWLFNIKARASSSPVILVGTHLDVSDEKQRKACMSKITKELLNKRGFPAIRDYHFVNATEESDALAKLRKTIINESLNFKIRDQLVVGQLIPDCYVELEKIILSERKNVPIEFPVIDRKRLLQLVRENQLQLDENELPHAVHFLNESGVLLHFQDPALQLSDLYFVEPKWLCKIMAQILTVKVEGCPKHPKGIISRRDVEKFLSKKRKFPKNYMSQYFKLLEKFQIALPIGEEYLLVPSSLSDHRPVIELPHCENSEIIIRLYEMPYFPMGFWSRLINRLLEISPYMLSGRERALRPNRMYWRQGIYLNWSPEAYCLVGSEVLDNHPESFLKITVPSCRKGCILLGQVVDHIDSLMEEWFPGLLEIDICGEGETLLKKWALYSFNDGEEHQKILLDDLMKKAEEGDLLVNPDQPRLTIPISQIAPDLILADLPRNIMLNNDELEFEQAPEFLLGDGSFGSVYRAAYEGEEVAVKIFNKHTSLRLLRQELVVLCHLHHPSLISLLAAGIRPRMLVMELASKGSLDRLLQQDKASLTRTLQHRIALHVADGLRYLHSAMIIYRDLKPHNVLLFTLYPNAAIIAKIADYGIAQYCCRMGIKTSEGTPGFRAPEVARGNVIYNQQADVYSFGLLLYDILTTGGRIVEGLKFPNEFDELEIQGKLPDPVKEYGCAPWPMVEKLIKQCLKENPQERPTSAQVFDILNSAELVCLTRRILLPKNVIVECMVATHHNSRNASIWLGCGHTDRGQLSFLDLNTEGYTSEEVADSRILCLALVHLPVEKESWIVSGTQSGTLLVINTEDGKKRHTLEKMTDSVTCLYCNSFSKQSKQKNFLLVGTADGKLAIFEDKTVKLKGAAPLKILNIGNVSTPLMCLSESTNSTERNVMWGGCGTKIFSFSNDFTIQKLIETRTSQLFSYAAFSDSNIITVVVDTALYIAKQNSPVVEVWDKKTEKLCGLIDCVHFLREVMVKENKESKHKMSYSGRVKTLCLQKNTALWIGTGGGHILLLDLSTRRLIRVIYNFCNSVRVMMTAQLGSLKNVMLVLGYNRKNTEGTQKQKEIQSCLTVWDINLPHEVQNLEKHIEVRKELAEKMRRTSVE

Molecular target: T1, LRRK2 Ser935 phosphorylation in SH-SY5Y cells over-expressing recombinant full length LRRK2 (Homo sapiens, UniProt Q5S007)
T1 construct: A BacMam virus expressing full length recombinant LRRK2 was purchased from Invitrogen; host or cells: SH-SY5Y (BacMam transduction)
Assay: Recombinant cellular LRRK2 AlphaScreen assay
Format: cell-based
Source text: Recombinant Cellular LRRK2 AlphaScreen Assay
To determine the activity of compounds against LRRK2 kinase activity in cells, the observed LRRK2 kinase-dependent modulation of LRRK2 Ser 935 phosphorylation (Dzamko et al., 2010, Biochem. J. 430: 405-413) was utilized to develop a quantitative 384 well plate-based immunoassay of LRRK2 Ser935 phosphorylation in the human neuroblastoma cell line SH-SY5Y, engineered to over-express recombinant full length LRRK2 protein.
A BacMam virus expressing full length recombinant LRRK2 was purchased from Invitrogen and amplified by inoculation of SF-9 cells at MOI 0.3 for 4-5 days in Sf-900 III SFM medium supplemented with 3% fetal bovine serum. Infected cell cultures were then centrifuged at 2000 g for 20 minutes, viral supernatant titer determined by anti-gp64 plaque assay and stored at 4° C.
Affinity-purified anti-phospho LRRK2 Ser935 sheep polyclonal antibody (Dzamko et al., 2010, Biochem. J. 430: 405-413) was biotinylated by standard methods (PerkinElmer). Anti-LRRK2 rabbit polyclonal antibody was purchased from Novus Biologicals. AlphaScreen Protein A IgG Kit (including acceptor and donor beads) was purchased from Perkin Elmer.
SH-SY5Y cells were grown in DMEM/F12 medium with 10% dialysed fetal bovine serum and harvested by treatment with 0.5% trypsin-EDTA for 5 minutes at 37° C. followed by centrifugation at 1000 rpm for 4 minutes. The cell pellet was resuspended in Opti-MEM reduced serum media (Invitrogen) at 200,000 cells/ml and mixed with the BacMam LRRK2 virus at M01=50. 50 μl cell solutions were then dispensed to each well of a 384-well plate and incubated at 37° C., 5% CO2 for 24 hours.
Serial dilutions of test compounds were prepared in Opti-MEM reduced serum media (Invitrogen) and 5.6 ul transferred from compound plate to cell assay plate to achieve a top final assay concentration of 10 uM. DMSO was used in certain wells as controls. Cells were incubated at 37° C., 5% CO2 for 60 minutes. The medium was then removed and cells lysed by addition of 20 ul cell lysis buffer (Cell Signaling Technology) and incubation at 4° C. for 20 minutes. 10 ul of antibody/acceptor bead mix [(1/1000 biotinylated-pS935 LRRK2 antibody, 1/1000 total-LRRK2 antibody, 1/100 Acceptor beads in AlphaScreen detection buffer (25 mM Hepes (pH 7.4), 0.5% Triton X-100, 1 mg/ml Dextran 500 and 0.1% BSA)] was then added to each well and plates incubated for 2 hours at ambient temperature in the dark. 10 μl of donor beads solution (1/33.3 donor beads in AlphaScreen detection buffer) was then added to each well. Following incubation for a further 2 hours at ambient temperature in the dark, plates were read on an EnVision™ plate reader at emission 520-620 nm with excitation 680 nm. Dose response curve data was based on sigmoidal dose-response model.

CCOc1nc(Nc2cnn(CCOC)c2C)nc2[nH]ccc12 [Example E9, 4-ethoxy-N-(1-(2-methoxyethyl)-5-methyl-1H-pyrazol-4-yl)-7H-pyrrolo-[2,3-d]pyrimidin-2-amine]
pIC50 in the recombinant cellular LRRK2 alphaScreen assay: ≥ 5.0

CCOc1nc(Nc2cnn(C3CN(C)CC3F)c2C)nc2[nH]ccc12 (single isomer, unassigned) [Example E61, 4-ethoxy-N-(1-(4-fluoro-1-methylpyrrolidin-3-yl)-5-methyl-1H-pyrazol-4-yl)-7H-pyrrolo-[2,3-d]pyrimidin-2-amine]
pIC50 in the recombinant cellular LRRK2 alphaScreen assay (text statement, listed as Example E61): ≥ 5.0

CCOc1nc(Nc2cn(C3CCN(C)CC3)nc2C)nc2[nH]ccc12 [Example E19, 4-ethoxy-N-(3-methyl-1-(1-methylpiperidin-4-yl)-1H-pyrazol-4-yl)-7H-pyrrolo-[2,3-d]-pyrimidin-2-amine]
pIC50 in the recombinant cellular LRRK2 alphaScreen assay (text statement): ≥ 5.0

CCOc1nc(Nc2cnn(C3CNCCO3)c2Cl)nc2[nH]ccc12 (single isomer, unassigned) [Example E143, N-(5-chloro-1-(morpholin-2-yl)-1H-pyrazol-4-yl)-4-ethoxy-7H-pyrrolo[2,3-d]pyrimidin-2-amine]
pIC50 in the recombinant cellular LRRK2 alphaScreen assay (text statement, listed as Example E143): ≥ 5.0

CCOc1nc(Nc2cnn(C3CNCCC3(F)F)c2C)nc2[nH]ccc12 (single isomer, unassigned) [Example E118, N-(1-(4,4-difluoropiperidin-3-yl)-5-methyl-1H-pyrazol-4-yl)-4-ethoxy-7H-pyrrolo[2,3-d]pyrimidin-2-amine]
pIC50 in the recombinant cellular LRRK2 alphaScreen assay (text statement, listed as Example E118): ≥ 5.0

CCOc1nc(Nc2cnn(C3CCOCC3)c2Cl)nc2[nH]ccc12 [Example E22, N-(5-chloro-1-(tetrahydro-2H-pyran-4-yl)-1H-pyrazol-4-yl)-4-ethoxy-7H-pyrrolo-[2,3-d]-pyrimidin-2-amine]
pIC50 in the recombinant cellular LRRK2 alphaScreen assay: ≥ 5.0

CCOc1nc(Nc2cnn(CC(C)(C)O)c2Cl)nc2[nH]ccc12 [Example E15, 1-(5-chloro-4-((4-ethoxy-7H-pyrrolo-[2,3-d]pyrimidin-2-yl)amino)-1H-pyrazol-1-yl)-2-methylpropan-2-ol]
pIC50 in the recombinant cellular LRRK2 alphaScreen assay: ≥ 5.0

CCOc1nc(Nc2cnn(C3CCCC3(C)O)c2C)nc2[nH]ccc12 (single isomer, unassigned) [Example E77, trans-2-(4-((4-ethoxy-7H-pyrrolo-[2,3-d]pyrimidin-2-yl)amino)-5-methyl-1H-pyrazol-1-yl)-1-methylcyclopentanol]
pIC50 in the recombinant cellular LRRK2 alphaScreen assay (text statement, listed as Example E77): ≥ 5.0

trans-2-(4-((4-ethoxy-7H-pyrrolo-[2,3-d]pyrimidin-2-yl)amino)-5-methyl-1H-pyrazol-1-yl)-cyclopentanol [Example E40]
pIC50 in the recombinant cellular LRRK2 alphaScreen assay (text statement): ≥ 7.0 | pIC50 in the recombinant cellular LRRK2 alphaScreen assay (text statement, listed as Example E40): ≥ 5.0

CCOc1nc(Nc2cnn(C3CCC(N4CCOCC4)C3)c2Cl)nc2[nH]ccc12 (single isomer, unassigned) [Example E111, (trans)-N-(5-chloro-1-(3-morpholinocyclopentyl)-1H-pyrazol-4-yl)-4-ethoxy-7H-pyrrolo[2,3-d]pyrimidin-2-amine]
pIC50 in the recombinant cellular LRRK2 alphaScreen assay (text statement, listed as Example E111): ≥ 5.0

CCOc1nc(Nc2cn(C3CCOCC3)nc2C)nc2[nH]ccc12 [Example E12, 4-ethoxy-N-(3-methyl-1-(tetrahydro-2H-pyran-4-yl)-1H-pyrazol-4-yl)-7H-pyrrolo-[2,3-d]-pyrimidin-2-amine]
pIC50 in the recombinant cellular LRRK2 alphaScreen assay (text statement): ≥ 5.0

CCOc1nc(Nc2cnn(C3CCN(C)C3)c2C)nc2[nH]ccc12 (single isomer, unassigned) [Example E13, 4-ethoxy-N-(5-methyl-1-(1-methylpyrrolidin-3-yl)-1H-pyrazol-4-yl)-7H-pyrrolo-[2,3-d]-pyrimidin-2-amine]
pIC50 in the recombinant cellular LRRK2 alphaScreen assay (text statement, listed as Example E13): ≥ 5.0

CCOc1nc(Nc2cnn(C3CC(O)C3)c2C)nc2[nH]ccc12 (centres unmarked) [Example E52, 3-(4-((4-ethoxy-7H-pyrrolo-[2,3-d]-pyrimidin-2-yl)-amino)-5-methyl-1H-pyrazol-1-yl)cyclo-butanol]
pIC50 in the recombinant cellular LRRK2 alphaScreen assay: ≥ 5.0

CCOc1nc(Nc2cnn(C3CCN(C)CC3)c2C)nc2[nH]ccc12 [Example E18, 4-ethoxy-N-(5-methyl-1-(1-methylpiperidin-4-yl)-1H-pyrazol-4-yl)-7H-pyrrolo-[2,3-d]-pyrimidin-2-amine]
pIC50 in the recombinant cellular LRRK2 alphaScreen assay: ≥ 5.0

CCOc1nc(Nc2cnn(CCN3CC4CC4C3)c2C)nc2[nH]ccc12 (centres unmarked) [Example E10, N-(1-(2-(3-aza-bicyclo-[3.1.0]hexan-3-yl)ethyl)-5-methyl-1H-pyrazol-4-yl)-4-ethoxy-7H-pyrrolo-[2,3-d]pyrimidin-2-amine]
pIC50 in the recombinant cellular LRRK2 alphaScreen assay: ≥ 5.0

CCOc1nc(Nc2cnn([C@@H]3CCO[C@H](C)C3)c2C)nc2[nH]ccc12 (single isomer, unassigned) [Example E43]
pIC50 in the recombinant cellular LRRK2 alphaScreen assay (text statement, listed as Example E43): ≥ 5.0

CCOc1nc(Nc2cnn(C3CC(N4CCOCC4)CCC3(F)F)c2Cl)nc2[nH]ccc12 (racemic) [Example E146, (±)-cis-N-(5-chloro-1-(2,2-difluoro-5-morpholinocyclohexyl)-1H-pyrazol-4-yl)-4-ethoxy-7H-pyrrolo[2,3-d]pyrimidin-2-amine]
pIC50 in the recombinant cellular LRRK2 alphaScreen assay (text statement, listed as Example E146): ≥ 5.0

CCOc1nc(Nc2cnn(C3CN(C)CCC3(F)F)c2C)nc2[nH]ccc12 (single isomer, unassigned) [Example E122, N-(1-(4,4-difluoro-1-methylpiperidin-3-yl)-5-methyl-1H-pyrazol-4-yl)-4-ethoxy-7H-pyrrolo[2,3-d]pyrimidin-2-amine]
pIC50 in the recombinant cellular LRRK2 alphaScreen assay (text statement, listed as Example E122): ≥ 5.0

CCOc1nc(Nc2cnn([C@@H]3C[C@H](F)CN(C4COC4)C3)c2Cl)nc2[nH]ccc12 [Example E151, N-(5-chloro-1-((3R,5S)-5-fluoro-1-(oxetan-3-yl)piperidin-3-yl)-1H-pyrazol-4-yl)-4-ethoxy-7H-pyrrolo[2,3-d]pyrimidin-2-amine]
pIC50 in the recombinant cellular LRRK2 alphaScreen assay: ≥ 5.0

CCOc1nc(Nc2cnn(CCOC)c2Cl)nc2[nH]ccc12 [Example E21, N-(5-chloro-1-(2-methoxyethyl)-1H-pyrazol-4-yl)-4-ethoxy-7H-pyrrolo-[2,3-d]-pyrimidin-2-amine]
pIC50 in the recombinant cellular LRRK2 alphaScreen assay: ≥ 5.0

CCOc1nc(Nc2cnn(CCOC)c2C)nc2[nH]cc(C#N)c12 [Example E47, 4-ethoxy-2-((1-(2-methoxyethyl)-5-methyl-1H-pyrazol-4-yl)-amino)-7H-pyrrolo-[2,3-d]-pyrimidine-5-carbonitrile]
pIC50 in the recombinant cellular LRRK2 alphaScreen assay: ≥ 5.0

CCOc1nc(Nc2cnn(CC(C)(C)C#N)c2C)nc2[nH]ccc12 [Example E62, 3-(4-((4-ethoxy-7H-pyrrolo-[2,3-d]pyrimidin-2-yl)amino)-5-methyl-1H-pyrazol-1-yl)-2,2-dimethylpropanenitrile]
pIC50 in the recombinant cellular LRRK2 alphaScreen assay: ≥ 5.0

CCOc1nc(Nc2cnn(C3CCC(N4CCOCC4)C3)c2C)nc2[nH]ccc12 (single isomer, unassigned) [Example E109, (trans)-4-ethoxy-N-(5-methyl-1-(3-morpholinocyclopentyl)-1H-pyrazol-4-yl)-7H-pyrrolo[2,3-d]pyrimidin-2-amine]
pIC50 in the recombinant cellular LRRK2 alphaScreen assay (text statement, listed as Example E109): ≥ 5.0

CCOc1nc(Nc2cnn(C3CCOCC3C)c2C)nc2[nH]ccc12 (single isomer, unassigned) [Example E115, (trans)-4-ethoxy-N-(5-methyl-1-(3-methyltetrahydro-2H-pyran-4-yl)-1H-pyrazol-4-yl)-7H-pyrrolo[2,3-d]pyrimidin-2-amine]
pIC50 in the recombinant cellular LRRK2 alphaScreen assay (text statement, listed as Example E115): ≥ 5.0

CCOc1nc(Nc2cnn(C3CCOCC3F)c2C)nc2[nH]ccc12 (single isomer, unassigned) [Example E128, (cis)-4-ethoxy-N-(1-(3-fluorotetrahydro-2H-pyran-4-yl)-5-methyl-1H-pyrazol-4-yl)-7H-pyrrolo[2,3-d]pyrimidin-2-amine]
pIC50 in the recombinant cellular LRRK2 alphaScreen assay (text statement, listed as Example E128): ≥ 5.0
